From the supplement of paper PMC10849652
This is one part of the list.

Sequences of proteins named here, by UniProt entry; tags and fusion partners are left off. A change or cut given only in a name is not applied to a line headed by its entry.
UniProt P36551: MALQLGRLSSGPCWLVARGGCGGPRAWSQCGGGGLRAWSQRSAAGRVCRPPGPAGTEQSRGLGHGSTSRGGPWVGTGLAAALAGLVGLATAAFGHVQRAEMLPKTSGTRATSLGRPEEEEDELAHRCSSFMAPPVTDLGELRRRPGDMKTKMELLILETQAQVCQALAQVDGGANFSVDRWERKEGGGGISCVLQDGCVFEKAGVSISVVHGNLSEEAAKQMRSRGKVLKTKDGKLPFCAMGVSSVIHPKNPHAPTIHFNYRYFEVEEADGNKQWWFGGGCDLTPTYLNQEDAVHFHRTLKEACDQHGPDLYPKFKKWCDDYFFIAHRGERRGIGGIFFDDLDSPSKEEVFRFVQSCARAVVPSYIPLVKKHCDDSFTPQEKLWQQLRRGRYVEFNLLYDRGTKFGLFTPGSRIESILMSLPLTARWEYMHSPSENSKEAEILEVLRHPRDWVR
UniProt Q9BXS0: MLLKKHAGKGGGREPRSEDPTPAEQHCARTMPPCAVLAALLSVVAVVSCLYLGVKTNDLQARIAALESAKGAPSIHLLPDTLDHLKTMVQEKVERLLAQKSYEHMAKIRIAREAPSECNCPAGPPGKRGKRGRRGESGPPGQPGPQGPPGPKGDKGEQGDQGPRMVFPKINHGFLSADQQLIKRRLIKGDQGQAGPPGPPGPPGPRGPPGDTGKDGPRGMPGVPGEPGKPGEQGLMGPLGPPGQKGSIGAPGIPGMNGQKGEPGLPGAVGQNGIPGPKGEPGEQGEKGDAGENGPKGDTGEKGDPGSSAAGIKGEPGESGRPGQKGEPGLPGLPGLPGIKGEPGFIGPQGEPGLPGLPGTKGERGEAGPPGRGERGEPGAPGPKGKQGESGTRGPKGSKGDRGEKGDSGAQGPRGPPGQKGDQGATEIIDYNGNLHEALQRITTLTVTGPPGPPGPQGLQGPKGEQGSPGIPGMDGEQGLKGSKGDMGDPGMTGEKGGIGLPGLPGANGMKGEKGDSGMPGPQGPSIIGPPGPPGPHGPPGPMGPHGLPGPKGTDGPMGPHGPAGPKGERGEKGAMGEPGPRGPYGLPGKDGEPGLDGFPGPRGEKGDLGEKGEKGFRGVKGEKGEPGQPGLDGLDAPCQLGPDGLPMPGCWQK
UniProt Q9UBG3: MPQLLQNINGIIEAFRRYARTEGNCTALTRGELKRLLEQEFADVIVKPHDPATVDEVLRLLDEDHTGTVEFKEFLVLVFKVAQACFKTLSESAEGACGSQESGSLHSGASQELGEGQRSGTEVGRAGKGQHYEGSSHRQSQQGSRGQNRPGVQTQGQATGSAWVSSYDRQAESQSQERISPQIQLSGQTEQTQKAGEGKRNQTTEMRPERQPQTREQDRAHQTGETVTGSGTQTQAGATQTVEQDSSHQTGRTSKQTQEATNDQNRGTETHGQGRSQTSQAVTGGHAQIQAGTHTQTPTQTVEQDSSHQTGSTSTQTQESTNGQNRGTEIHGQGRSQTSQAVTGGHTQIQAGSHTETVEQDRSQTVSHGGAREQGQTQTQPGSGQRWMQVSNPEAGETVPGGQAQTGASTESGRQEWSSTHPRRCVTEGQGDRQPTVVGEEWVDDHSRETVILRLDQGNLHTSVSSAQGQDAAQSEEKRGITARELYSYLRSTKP
UniProt P54108: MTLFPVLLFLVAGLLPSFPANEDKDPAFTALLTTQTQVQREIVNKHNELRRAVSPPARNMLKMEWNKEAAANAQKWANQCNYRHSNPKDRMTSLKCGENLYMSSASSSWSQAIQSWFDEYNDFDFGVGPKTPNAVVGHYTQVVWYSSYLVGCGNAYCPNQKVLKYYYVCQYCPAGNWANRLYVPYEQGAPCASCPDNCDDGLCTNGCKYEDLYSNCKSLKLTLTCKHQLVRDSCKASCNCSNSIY
UniProt Q8IUI8: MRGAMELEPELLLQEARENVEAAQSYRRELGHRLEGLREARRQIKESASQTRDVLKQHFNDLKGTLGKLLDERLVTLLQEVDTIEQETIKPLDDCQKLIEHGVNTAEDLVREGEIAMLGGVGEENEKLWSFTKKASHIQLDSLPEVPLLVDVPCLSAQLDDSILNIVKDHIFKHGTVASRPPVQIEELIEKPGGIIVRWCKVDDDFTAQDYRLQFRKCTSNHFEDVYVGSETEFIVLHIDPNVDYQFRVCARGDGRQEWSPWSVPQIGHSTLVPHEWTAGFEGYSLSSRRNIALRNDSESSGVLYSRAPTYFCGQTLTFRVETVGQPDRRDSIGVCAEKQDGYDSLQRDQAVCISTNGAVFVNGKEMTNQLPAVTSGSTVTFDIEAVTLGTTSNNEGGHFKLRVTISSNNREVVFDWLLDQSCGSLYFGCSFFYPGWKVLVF
UniProt Q8NI60: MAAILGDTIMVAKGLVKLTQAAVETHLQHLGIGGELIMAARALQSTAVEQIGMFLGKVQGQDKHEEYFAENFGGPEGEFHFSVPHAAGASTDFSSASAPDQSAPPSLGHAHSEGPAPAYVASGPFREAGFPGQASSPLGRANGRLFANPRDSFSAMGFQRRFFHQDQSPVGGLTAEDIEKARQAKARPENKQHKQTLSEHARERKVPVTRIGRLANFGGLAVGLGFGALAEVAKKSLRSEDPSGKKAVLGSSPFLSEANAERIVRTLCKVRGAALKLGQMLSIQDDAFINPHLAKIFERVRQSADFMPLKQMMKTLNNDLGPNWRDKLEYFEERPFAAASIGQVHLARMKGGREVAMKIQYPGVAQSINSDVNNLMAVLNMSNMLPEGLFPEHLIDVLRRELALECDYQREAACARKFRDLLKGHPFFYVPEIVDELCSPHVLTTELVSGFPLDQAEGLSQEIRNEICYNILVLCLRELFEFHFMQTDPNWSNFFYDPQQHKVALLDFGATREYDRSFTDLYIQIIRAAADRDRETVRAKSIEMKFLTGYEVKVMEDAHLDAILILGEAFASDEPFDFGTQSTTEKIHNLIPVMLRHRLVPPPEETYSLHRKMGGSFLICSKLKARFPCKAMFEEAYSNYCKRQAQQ
UniProt P00450: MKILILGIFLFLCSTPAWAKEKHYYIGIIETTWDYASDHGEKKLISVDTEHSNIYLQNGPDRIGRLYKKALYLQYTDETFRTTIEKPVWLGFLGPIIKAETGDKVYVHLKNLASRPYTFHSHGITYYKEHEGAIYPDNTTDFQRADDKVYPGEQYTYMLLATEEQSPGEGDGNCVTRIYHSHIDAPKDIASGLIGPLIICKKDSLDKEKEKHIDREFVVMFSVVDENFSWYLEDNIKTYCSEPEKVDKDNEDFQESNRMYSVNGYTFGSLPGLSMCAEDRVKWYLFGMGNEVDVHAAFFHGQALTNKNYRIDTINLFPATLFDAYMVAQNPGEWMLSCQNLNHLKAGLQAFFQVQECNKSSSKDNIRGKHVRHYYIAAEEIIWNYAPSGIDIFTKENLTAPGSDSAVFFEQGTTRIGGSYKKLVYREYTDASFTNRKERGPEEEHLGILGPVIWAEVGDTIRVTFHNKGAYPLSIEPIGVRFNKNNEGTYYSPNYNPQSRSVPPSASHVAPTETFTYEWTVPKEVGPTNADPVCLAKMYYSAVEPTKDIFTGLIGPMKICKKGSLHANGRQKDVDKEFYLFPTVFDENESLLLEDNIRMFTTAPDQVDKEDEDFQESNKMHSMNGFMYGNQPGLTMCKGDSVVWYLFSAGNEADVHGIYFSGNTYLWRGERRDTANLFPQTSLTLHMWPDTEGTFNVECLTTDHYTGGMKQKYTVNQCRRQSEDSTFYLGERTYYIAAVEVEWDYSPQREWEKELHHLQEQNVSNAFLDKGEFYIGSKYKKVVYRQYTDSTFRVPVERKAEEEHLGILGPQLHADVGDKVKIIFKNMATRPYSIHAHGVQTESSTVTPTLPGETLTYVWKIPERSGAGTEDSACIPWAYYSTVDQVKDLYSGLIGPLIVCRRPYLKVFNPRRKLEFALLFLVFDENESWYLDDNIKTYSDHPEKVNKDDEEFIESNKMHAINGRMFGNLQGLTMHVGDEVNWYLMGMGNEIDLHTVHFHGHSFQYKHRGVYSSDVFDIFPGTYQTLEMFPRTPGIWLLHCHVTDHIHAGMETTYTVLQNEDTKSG
UniProt Q5TZA2: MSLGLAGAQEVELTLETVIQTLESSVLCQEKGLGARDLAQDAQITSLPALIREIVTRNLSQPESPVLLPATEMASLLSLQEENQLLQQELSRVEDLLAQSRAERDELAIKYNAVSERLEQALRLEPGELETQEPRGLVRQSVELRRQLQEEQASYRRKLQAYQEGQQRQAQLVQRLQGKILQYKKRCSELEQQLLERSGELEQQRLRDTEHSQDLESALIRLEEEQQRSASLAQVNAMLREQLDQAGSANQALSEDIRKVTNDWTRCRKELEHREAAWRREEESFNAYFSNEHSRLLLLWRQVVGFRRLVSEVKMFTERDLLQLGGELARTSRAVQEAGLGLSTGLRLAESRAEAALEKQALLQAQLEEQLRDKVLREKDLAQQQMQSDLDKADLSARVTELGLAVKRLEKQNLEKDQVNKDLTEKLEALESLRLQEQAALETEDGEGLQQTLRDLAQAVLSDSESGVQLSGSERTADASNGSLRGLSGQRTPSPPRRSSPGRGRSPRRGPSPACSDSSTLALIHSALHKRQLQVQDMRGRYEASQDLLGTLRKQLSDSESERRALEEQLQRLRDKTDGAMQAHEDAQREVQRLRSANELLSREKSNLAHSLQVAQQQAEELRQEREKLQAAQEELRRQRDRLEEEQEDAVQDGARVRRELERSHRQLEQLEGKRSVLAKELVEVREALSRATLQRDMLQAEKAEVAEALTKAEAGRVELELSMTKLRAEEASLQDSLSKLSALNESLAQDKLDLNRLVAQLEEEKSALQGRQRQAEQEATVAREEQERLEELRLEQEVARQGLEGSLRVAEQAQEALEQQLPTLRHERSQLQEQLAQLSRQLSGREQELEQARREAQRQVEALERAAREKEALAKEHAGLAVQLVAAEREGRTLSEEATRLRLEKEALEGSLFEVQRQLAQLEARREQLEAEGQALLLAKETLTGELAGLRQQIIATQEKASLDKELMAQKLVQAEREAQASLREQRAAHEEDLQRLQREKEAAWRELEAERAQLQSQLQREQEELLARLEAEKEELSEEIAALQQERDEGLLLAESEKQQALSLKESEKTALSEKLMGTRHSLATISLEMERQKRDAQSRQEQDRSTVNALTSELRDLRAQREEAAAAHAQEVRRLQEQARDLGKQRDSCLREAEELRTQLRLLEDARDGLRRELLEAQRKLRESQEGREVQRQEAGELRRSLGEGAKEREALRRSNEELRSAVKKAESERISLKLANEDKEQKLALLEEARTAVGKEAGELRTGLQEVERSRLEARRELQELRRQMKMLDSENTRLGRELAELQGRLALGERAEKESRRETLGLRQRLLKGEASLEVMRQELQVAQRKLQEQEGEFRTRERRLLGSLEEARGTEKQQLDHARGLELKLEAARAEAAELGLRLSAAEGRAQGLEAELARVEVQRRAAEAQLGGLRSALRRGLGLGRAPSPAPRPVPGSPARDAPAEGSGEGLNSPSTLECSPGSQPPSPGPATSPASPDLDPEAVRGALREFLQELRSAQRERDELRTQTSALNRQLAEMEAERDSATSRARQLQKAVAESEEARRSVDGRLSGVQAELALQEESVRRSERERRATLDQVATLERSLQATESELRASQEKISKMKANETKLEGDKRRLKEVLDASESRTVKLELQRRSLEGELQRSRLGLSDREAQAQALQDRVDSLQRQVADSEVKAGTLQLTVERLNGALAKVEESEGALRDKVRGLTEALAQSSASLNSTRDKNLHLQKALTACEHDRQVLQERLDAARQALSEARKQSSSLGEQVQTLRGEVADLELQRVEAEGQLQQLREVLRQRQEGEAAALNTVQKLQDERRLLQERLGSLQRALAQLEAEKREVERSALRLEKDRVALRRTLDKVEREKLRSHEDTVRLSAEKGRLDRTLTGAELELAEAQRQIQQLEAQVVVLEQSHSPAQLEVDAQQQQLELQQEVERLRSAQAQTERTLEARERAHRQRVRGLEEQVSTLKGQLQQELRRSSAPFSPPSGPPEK
UniProt Q14194, whole entry, looked up: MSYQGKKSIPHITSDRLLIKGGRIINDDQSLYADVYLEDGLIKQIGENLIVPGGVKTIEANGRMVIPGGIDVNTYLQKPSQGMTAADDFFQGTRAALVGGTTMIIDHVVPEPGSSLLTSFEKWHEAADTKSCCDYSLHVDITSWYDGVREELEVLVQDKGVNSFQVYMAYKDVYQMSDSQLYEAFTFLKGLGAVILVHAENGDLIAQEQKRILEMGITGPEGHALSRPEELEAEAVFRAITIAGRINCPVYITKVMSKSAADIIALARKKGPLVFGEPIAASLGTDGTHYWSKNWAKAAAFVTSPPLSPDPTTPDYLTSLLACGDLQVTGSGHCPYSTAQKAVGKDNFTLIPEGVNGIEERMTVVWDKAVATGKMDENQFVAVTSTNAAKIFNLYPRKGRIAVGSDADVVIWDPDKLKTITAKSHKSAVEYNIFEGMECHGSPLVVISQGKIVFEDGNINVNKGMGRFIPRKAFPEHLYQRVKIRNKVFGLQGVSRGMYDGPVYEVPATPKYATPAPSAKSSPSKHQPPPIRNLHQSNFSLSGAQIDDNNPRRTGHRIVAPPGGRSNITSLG

How the values were obtained:
Assay in all cases: log2 fold change, soluble protein after heating vs DMSO (PISA); higher = thermal stabilisation; K562 cells, 10 uM, 30 min; active = over 0.2 and 3.5 SD of the protein, either way, in both replicates (recomputed)
[1] = compound: C1=CC=C(C=C1)[C@H](COC2=CC3=C(C=C2)NC(=O)N3)NC(=O)C4=CC=CN(C4=O)CC5=CC(=C(C=C5)F)F
Outline: (§1)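 K562 cells at 2×10^6 cells/mL were treated for 30 min with 10 μM compound, and aliquots were heated for 3 min over 48°C-58°C before pooling. Extraction used PBS with 0.5% NP-40 at 4°C, and soluble protein was the supernatant after 21,000xg for 90 min, measured by TMTpro 16plex LC-MS/MS with channel sums equalised. Thermal stability values, relative to control samples and from duplicates, are log2 fold changes.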

[2] = compound: CC1=C(SC2=C1C(=N[C@H](C3=NN=C(N32)C)CC(=O)N)C4=CC=C(C=C4)Cl)C
Outline: as §1

[3] = compound: CC1=C2C(=CC=C1)N=C(N(C2=O)C3=CC=CC=C3C)CN4C=NC5=C(N=CN=C54)N
Outline: as §1

[4] = compound: Cc1sc2c(c1C)C(c1ccc(Cl)cc1)=N[C@@H](CC(=O)OC(C)(C)C)c1nnc(C)n1-2
Outline: as §1

[5] = compound: c1ccc([C@@H]2C[C@H]2NC2CCNCC2)cc1
Outline: as §1

Measured: log2 fold change

CPOX (UniProt P36551)
inactive: [1] -0.007 | [2] 0 | [3] 0.056 | [4] -0.021 | [5] 0.027

COPS4 (UniProt Q9BT78)
inactive: [1] 0.04 | [2] 0.023 | [3] 0.016 | [4] -0.01 | [5] -0.011

COL25A1 (UniProt Q9BXS0)
inactive: [1] 0.058

CRNN (UniProt Q9UBG3)
inactive: [1] 0.974

Quoted from above (two entries):
CPOX (UniProt P36551)
inactive: [1] -0.007 | [2] 0 | [3] 0.056 | [4] -0.021 | [5] 0.027

COPS4 (UniProt Q9BT78)
inactive: [1] 0.04 | [2] 0.023 | [3] 0.016 | [4] -0.01 | [5] -0.011

Next part.

CRISP3 isoform 3 (UniProt P54108)
inactive: [1] -0.019

CRLF3 (UniProt Q8IUI8)
inactive: [1] -0.03 | [2] 0.045 | [3] 0.087 | [4] 0.088 | [5] -0.036

COQ8A (UniProt Q8NI60)
inactive: [1] 0.001 | [2] 0.125 | [3] -0.063 | [4] -0.022 | [5] -0.011

CS (UniProt F8VU34)
inactive: [1] -0.03

CP (UniProt P00450)
inactive: [1] 0.169

CPT1A (UniProt P50416)
inactive: [1] 0.095 | [2] 0.011 | [3] 0.125 | [4] -0.022 | [5] -0.118

CROCC (UniProt Q5TZA2)
inactive: [1] -0.03 | [2] 0.03 | [3] 0.053 | [4] -0.036 | [5] -0.004

CRMP1 isoform 2 (UniProt Q14194)
inactive: [1] -0.014 | [2] 0.074 | [3] -0.066 | [4] 0.002 | [5] -0.006
